{"source": "paper PMC8920379", "about": "“The discovery of berberine erythrocyte-hemoglobin self-assembly delivery system: a neglected carrier underlying its pharmacokinetics” (Drug Delivery, 2022)", "tested_on": "30% erythrocytes", "experiment": "Transmission electron microscopy of BBR-loaded erythrocytes", "format": "cell-based, rats", "conditions": "30% erythrocytes treated with 0.5 M BBR, 37 °C, 2 h, vs PBS control", "note": "“Also recorded” adds a separate entry of the source.", "data": [{"smiles": "COc1ccc2cc3[n+](cc2c1OC)CCc1cc2c(cc1-3)OCO2", "note": "[BBR, Berberine]", "values": [{"measurement": "morphology of erythrocytes by electron microscopy", "result": "spheroidal with several intracellular vesicles; also recorded: spheroidal with litter hemolysis and several discrete vacuoles"}]}]}
